For one molecule, binding results are on record in patent US20220187308A1.

Sequences of proteins named here, by UniProt entry; tags and fusion partners are left off. Residues count along the entry.
UniProt P05231, residues 30-212: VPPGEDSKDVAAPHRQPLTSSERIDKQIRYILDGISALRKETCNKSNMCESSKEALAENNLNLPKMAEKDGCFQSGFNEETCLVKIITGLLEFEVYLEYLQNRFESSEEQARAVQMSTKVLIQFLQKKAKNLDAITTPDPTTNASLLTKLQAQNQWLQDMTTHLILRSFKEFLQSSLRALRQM

Results are given in words; binding and its absence hold for the method and conditions named. Some results given as binding are weak or reduced against the parent protein; the word gives no strength.

For this assay, the target named is biotin-labeled IL-6 (UniProt P05231). The assay can be described thus: phage ELISA (Fab displayed on phage) on biotin-labeled IL-6 on a StreptaWell plate, 1.2 mM CaCl2 against 1 mM EDTA.

B1: 6KC4-1 #85 antibody (antibody, IgG1, V domains shown)
VH: EVQLVESGGGLVQPGGSLRLSCAASGFTFSSYEMNWVRQAPGKGLEWVSYISSSGSTIYYADSVKGRFTISRDNAKNSLYLQMNSLRAEDTAVYYCARDAPYYYDSSGYTDAFDIWGQGTMVTVSS
VL: EIVLTQSPATLSLSPGERATLSCRASQSVSSYLAWYQQKPGQAPRLLIFDASNRAAGIPARFSGSGSGTDFTLTISSLEPEDFAVYYCQQFDKWVTFGGGTTVEIR
As to B1, the binding entry was “binds”.
